Among all 220,000 compounds or so, about 2,400 (1.1%) were called active. The inconclusive results got no clear call from the source; some entries with a clear call stand among them for comparison. Calls come from the whole dose curve; as a rule, active = well fitted inhibition curve with a large enough effect; inconclusive = small, poorly fitted or top-dose-only effect, or effect the other way; inactive = no such curve, though single readings can be large or run the other way. Potencies beside an inconclusive call are fits to weak or partial responses and may not hold up.
Assay: qHTS Multiplex Assay to Identify Dual Action Probes in a Cell Model of Huntington: Aggregate Formation (GFP); note: nearly all actives have a fitted effect of over 60% in size
Conditions: PC12 HttQ103-GFP aggregates, Acumen cytometry, 40 h; activity change, negative = inhibition: at 46.1 µM (top of the series) unless noted
Method in brief: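 Ecdysone-promoter PC12 model expressing HTT exon 1 Q103 fused to GFP, induced by tebufenozide at 100 nM final. Compounds titrated; aggregates sized 1–25 µm scored on a 488 nm laser cytometer.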
In the case of `COc1ccc(-c2ccc(N(C)C)cc2)cc1[C@H]1[C@H]2C=CC[C@@H](C)[C@@H]2C(=O)N1Cc1ccccc1`, the Potency is reported as inconclusive: 2.82 µM [activator, partial curve].
For `COc1ccc(-n2cccc2/C=C2\C(=N)N3N=C(c4ccco4)SC3=NC2=O)cc1`, the “activity change, negative = inhibition” value was inactive: 7.67%.
With `Fc1ccccc1/C=C1\CCCC2=C1NC(=S)NC2c1ccccc1F` (configuration not stated) the Potency was inconclusive: 35.5 µM [inhibitor, single point].
For `N#C/C(=C/c1ccc(N2CCOCC2)o1)c1ccc(Cl)cc1`, the Potency was inconclusive: 22.4 µM [activator, partial curve].
For `CCOc1ccc(CN2CCN(Cc3cccn3-c3ncccn3)CC2CCO)cc1` (configuration not stated), the Potency was inconclusive: 20 µM [inhibitor, partial curve].
With `O=C(NC1CC1)C1CCN(c2ccc(S(=O)(=O)N3CCOCC3)cc2Cl)CC1` the “activity change, negative = inhibition” value was inactive: 0.346%.
For `Cc1ccc(SC(CC(=O)c2ccc(C)cc2)C(=O)O)cc1` (configuration not stated), the “activity change, negative = inhibition” value was inactive: -51.9%.
With `CCSc1nnc(NC(=O)CCc2ccc(OC)cc2)s1` the Potency was inconclusive: 1.26 µM [activator, full curve].
For `COC(=O)c1ccc(C23CC4(C2)[C@H](CN(C)[C@@H]4c2ccccc2)C3c2ccc(Cl)nc2)cc1` (some centres not stated), the activity change, negative = inhibition was inactive: -10.2% [at 9.22 µM].
For `CCN(CC)c1ccc(NC(=O)CSc2nnc3nc(C)cc(C)n23)cc1`, the “activity change, negative = inhibition” value was inactive: -10.5%.
For `CCCC(=O)Nc1ccc(C(=O)N2CCCC2)cc1`, the “activity change, negative = inhibition” value was inactive: 1.86%.
In the case of `Cc1ccc(O)c(C(=O)c2cnn(C(=O)COc3ccc(Cl)cc3)c2)c1`, the Potency is reported as active: 5.62 µM.
In the case of `CCOc1ccc(-n2c(=S)sc3c(=O)[nH]c(SCC(=O)C(C)(C)C)nc32)cc1`, the Potency is reported as inconclusive: 35.5 µM [inhibitor, single point].
In the case of `O=C(c1ccc(C(F)(F)F)cc1)N1CCC(=O)N(C(COCc2ccc(C(F)(F)F)cc2)Cc2ccccc2)CC1` (configuration not stated), the “activity change, negative = inhibition” value is reported as inactive: -22%.
With `Cc1ccc(-n2nnnc2C(Cl)(Cl)c2nnnn2-c2ccc(C)cc2)cc1` the Potency was inconclusive: 35.5 µM [inhibitor, single point].
With `O=S(=O)(c1ccc(N2CCCC2)cc1)C(F)(F)F` the Potency was active: 10 µM.
In the case of `CC(C)(C)N(Cc1ccccc1)C(=O)CSc1nnc(CNc2ccc(F)cc2)o1`, the Potency is reported as inconclusive: 10 µM [inhibitor, partial curve].
With `O=C(COc1ccccc1[N+](=O)[O-])N1CCN(S(=O)(=O)c2ccccc2)CC1` the “activity change, negative = inhibition” value was inactive: 12.2%.
For `Cc1ccc(OCCNS(=O)(=O)c2ccc(N3CCCC3=O)cc2)cc1`, the Potency was active: 11.2 µM.
For `COc1ccc(CNc2ncnc3cc(Cl)ccc23)cc1`, the Potency was active: 14.1 µM.
In the case of `CCOC(=O)CSc1nnc(NC(=O)c2cccc(S(=O)(=O)N3CCCC3)c2)s1`, the Potency is reported as active: 1 µM.
For `CC(=O)Nc1ccc(NC(=O)CN(c2cc(Cl)ccc2Cl)S(C)(=O)=O)cc1`, the Potency was active: 31.6 µM.
With `COc1cnc(-c2ccccn2)[nH]c1=O` the Potency was inconclusive: 25.1 µM [inhibitor, single point].
For `Cc1cc(C(=O)COC(=O)CN(C)S(=O)(=O)c2ccc(Cl)cc2)c(C)n1CC1CCCO1` (configuration not stated), the “activity change, negative = inhibition” value was inactive: -10.4%.
With `COc1cccc(CC(NC(C)=O)C(=O)NC2CCN(c3ncccc3[N+](=O)[O-])CC2)c1` (configuration not stated) the “activity change, negative = inhibition” value was inactive: -8.77%.
In the case of `N#Cc1cc([N+](=O)[O-])ccc1Oc1cccc(/C=N/NC(=O)c2cccc(Cl)c2)c1`, the Potency is reported as inconclusive: 11.2 µM [inhibitor, single point].
For `O=S(=O)(c1ccc2c(c1)OCCO2)N1CCN(c2ncnc3sccc23)CC1`, the Potency was inconclusive: 7.08 µM [inhibitor, full curve].
With `Cc1ccc(OCC(=O)N(Cc2ccc(N(C)C)cc2)C2CCS(=O)(=O)C2)cc1C` (configuration not stated) the activity change, negative = inhibition was inactive: -5.63% [at 9.22 µM].
In the case of `O=S1(=O)C=C(Sc2nnc(-c3ccccc3)o2)c2ccccc21`, the Potency is reported as active: 4.47 µM.
For `CC(C)(C)c1ccc(C(=O)NCC(=O)OCC(=O)Nc2ccccc2[N+](=O)[O-])cc1`, the “activity change, negative = inhibition” value was inactive: 10.7%.
With `CCOC(=O)N1CCC(n2c(=S)[nH]c3cc(OC)c(OC)cc3c2=O)CC1` the Potency was inconclusive: 0.126 µM [activator, partial curve, poor fit].
With `Cn1c(NC(=O)c2ccccc2NC(=O)C(C)(C)C)nc2ccccc21` the Potency was inconclusive: 15.8 µM [inhibitor, single point].
With `COc1ccc2[nH]cc(C(O)CN3CCN(c4ccccc4)CC3)c2c1` (configuration not stated) the Potency was inconclusive: 35.5 µM [inhibitor, single point].
In the case of `O=C(Cn1cnc([N+](=O)[O-])n1)N/N=C/c1ccccc1O`, the Potency is reported as active: 8.91 µM.
With `CCOC(=O)c1nc(N)c(C(=O)OCC)[nH]1` the Potency was active: 3.55 µM.
With `CCOCC(O)COc1ccc(NC(=O)CC[S+](C)C)cc1` (configuration not stated) the “activity change, negative = inhibition” value was inactive: -97.3%.
In the case of `COc1ccc(-n2nc([N+](=O)[O-])c(=NCCc3cccc(C)c3)n2O)cc1`, the Potency is reported as inconclusive: 15.8 µM [inhibitor, single point].
In the case of `CCn1c(=O)cc(OCC(=O)N2CCN(c3ccc(F)cc3)CC2)c2ccccc21`, the Potency is reported as inconclusive: 12.6 µM [activator, partial curve].
With `Cc1ccc(-c2csc3ncnc(N4CCc5ccccc5C4)c23)cc1` the Potency was inconclusive: 11.2 µM [inhibitor, partial curve].
With `O=C(Cn1c(C(F)(F)F)nc2ccccc21)NCCN1CCCC1` the Potency was inconclusive: 5.01 µM [inhibitor, partial curve].
In the case of `CCN1/C(=C/C=C/c2sc3ccccc3[n+]2CC)Sc2ccccc21`, the Potency is reported as active: 2 µM.
In the case of `Cc1cccc(C2(c3cccc(C)c3)CC2C(=O)Nc2ccc([N+](=O)[O-])cc2O)c1` (configuration not stated), the Potency is reported as inconclusive: 15.8 µM [inhibitor, partial curve].
For `Cc1nc(N2CCN(c3ccccc3)CC2)c2c3c(sc2n1)CCC3`, the Potency was inconclusive: 12.6 µM [inhibitor, partial curve].
For `CC(=O)Nc1ccc(C(=O)/C=C/c2ccc[nH]2)cc1`, the Potency was active: 11.2 µM.
In the case of `Cc1cc(C)n(Cc2ccc(NC(=O)c3nn(C)cc3[N+](=O)[O-])cc2)n1`, the Potency is reported as inconclusive: 3.55 µM [activator, single point].
For `O=C(COc1ccccc1)NCC(=O)N/N=C/c1ccccc1`, the “activity change, negative = inhibition” value was inactive: 5.88%.
In the case of `COCC(C)NC(=O)c1cc(-c2cccc(OC)c2)on1` (configuration not stated), the “activity change, negative = inhibition” value is reported as inactive: 13.8%.

From PubChem BioAssay AID1688 (National Center for Advancing Translational Sciences (NCATS), 2009)
% is set by controls: 0 for no effect and ±100 for the full control effect; potency is the fitted concentration of half-maximal effect.
